Experimental findings from paper doi:10.1101/2021.06.11.448082 are described below.

Sequences of proteins named here, by UniProt entry; tags and fusion partners are left off. A change or cut given only in a name is not applied to a line headed by its entry.
UniProt P35637: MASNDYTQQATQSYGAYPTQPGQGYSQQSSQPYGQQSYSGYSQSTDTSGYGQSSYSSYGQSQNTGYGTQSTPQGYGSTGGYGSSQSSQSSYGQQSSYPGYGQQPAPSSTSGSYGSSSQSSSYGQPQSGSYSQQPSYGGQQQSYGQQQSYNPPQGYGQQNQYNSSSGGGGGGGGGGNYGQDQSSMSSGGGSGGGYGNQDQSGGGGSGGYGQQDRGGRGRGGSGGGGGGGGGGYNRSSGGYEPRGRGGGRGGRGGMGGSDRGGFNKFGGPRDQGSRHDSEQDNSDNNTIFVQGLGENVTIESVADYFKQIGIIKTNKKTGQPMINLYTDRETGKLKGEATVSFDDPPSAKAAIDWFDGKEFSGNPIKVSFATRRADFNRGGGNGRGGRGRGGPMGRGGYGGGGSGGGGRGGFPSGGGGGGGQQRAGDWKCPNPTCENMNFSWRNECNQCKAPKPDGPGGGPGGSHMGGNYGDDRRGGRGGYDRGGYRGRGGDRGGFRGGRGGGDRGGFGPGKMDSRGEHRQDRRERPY
UniProt Q13283: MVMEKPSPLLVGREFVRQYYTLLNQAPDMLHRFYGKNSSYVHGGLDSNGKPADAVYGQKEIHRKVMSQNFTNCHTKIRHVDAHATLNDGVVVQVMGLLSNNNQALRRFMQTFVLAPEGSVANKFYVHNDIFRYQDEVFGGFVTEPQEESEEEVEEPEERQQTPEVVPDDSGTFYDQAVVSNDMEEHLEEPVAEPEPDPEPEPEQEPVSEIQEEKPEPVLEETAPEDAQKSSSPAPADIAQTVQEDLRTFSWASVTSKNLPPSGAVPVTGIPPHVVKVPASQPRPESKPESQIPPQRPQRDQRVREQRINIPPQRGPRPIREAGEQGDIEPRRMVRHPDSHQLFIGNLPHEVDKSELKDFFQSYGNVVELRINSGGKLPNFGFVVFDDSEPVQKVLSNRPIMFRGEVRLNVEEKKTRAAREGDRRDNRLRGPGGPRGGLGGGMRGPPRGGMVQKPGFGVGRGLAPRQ
UniProt P05198: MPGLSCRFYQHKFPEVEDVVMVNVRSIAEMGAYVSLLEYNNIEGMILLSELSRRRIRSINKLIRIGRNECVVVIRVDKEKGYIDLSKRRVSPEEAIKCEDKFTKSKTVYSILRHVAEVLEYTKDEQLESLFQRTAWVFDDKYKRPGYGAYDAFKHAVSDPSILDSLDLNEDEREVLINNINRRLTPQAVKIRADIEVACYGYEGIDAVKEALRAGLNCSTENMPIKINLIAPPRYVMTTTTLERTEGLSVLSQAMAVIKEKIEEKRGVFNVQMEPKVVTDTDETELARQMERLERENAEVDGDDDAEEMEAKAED
UniProt Q01844: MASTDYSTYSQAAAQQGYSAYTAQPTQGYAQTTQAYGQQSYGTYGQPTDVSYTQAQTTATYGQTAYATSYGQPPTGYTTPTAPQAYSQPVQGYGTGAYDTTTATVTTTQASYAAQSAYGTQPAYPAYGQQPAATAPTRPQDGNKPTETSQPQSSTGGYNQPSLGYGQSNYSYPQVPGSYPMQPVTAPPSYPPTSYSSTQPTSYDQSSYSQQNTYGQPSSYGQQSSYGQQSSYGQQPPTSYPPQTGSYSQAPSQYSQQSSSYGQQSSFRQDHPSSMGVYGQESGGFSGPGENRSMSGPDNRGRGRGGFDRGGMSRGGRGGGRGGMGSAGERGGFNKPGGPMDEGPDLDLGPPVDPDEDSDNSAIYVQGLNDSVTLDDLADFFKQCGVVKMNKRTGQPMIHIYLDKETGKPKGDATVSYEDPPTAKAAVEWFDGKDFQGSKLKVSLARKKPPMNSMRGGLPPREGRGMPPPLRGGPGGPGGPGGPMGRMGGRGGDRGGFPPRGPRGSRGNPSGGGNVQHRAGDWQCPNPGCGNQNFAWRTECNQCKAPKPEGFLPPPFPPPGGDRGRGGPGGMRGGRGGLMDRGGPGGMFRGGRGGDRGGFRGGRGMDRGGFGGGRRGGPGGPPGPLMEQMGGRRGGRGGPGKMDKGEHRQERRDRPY

Results are given in words; binding and its absence hold for the method and conditions named. In cells and extracts the contact can be indirect. Some entries that bind do so weakly or less than the wild type.

For experiment [1], the target named is GFP-tagged, Twin-Strep-tagged FUS P525L (human) (UniProt P35637). The experiment in a line: co-IP.
Experiment [2] has as its target GFP-tagged, Twin-Strep-tagged FUS WT (human) (UniProt P35637). The experiment in a line: co-IP.

For the molecule G3BP1 (from UniProt Q13283 1-466), the binding result in experiment [1] is “binds”. As for eIF2α (from UniProt P05198 1-315), the binding result in experiment [1] and in experiment [2] was “binds” in each case.

On to EWS (from UniProt Q01844 1-656), for which the binding result in experiment [1] and in experiment [2] was “binds” each time.

B1: MOV10 (protein, UniProt Q9HCE1 1-1003)
chain: MPSKFSCRQLREAGQCFESFLVVRGLDMETDRERLRTIYNRDFKISFGTPAPGFSSMLYGMKIANLAYVTKTRVRFFRLDRWADVRFPEKRRMKLGSDISKHHKSLLAKIFYDRAEYLHGKHGVDVEVQGPHEARDGQLLIRLDLNRKEVLTLRLRNGGTQSVTLTHLFPLCRTPQFAFYNEDQELPCPLGPGECYELHVHCKTSFVGYFPATVLWELLGPGESGSEGAGTFYIARFLAAVAHSPLAAQLKPMTPFKRTRITGNPVVTNRIEEGERPDRAKGYDLELSMALGTYYPPPRLRQLLPMLLQGTSIFTAPKEIAEIKAQLETALKWRNYEVKLRLLLHLEELQMEHDIRHYDLESVPMTWDPVDQNPRLLTLEVPGVTESRPSVLRGDHLFALLSSETHQEDPITYKGFVHKVELDRVKLSFSMSLLSRFVDGLTFKVNFTFNRQPLRVQHRALELTGRWLLWPMLFPVAPRDVPLLPSDVKLKLYDRSLESNPEQLQAMRHIVTGTTRPAPYIIFGPPGTGKTVTLVEAIKQVVKHLPKAHILACAPSNSGADLLCQRLRVHLPSSIYRLLAPSRDIRMVPEDIKPCCNWDAKKGEYVFPAKKKLQEYRVLITTLITAGRLVSAQFPIDHFTHIFIDEAGHCMEPESLVAIAGLMEVKETGDPGGQLVLAGDPRQLGPVLRSPLTQKHGLGYSLLERLLTYNSLYKKGPDGYDPQFITKLLRNYRSHPTILDIPNQLYYEGELQACADVVDRERFCRWAGLPRQGFPIIFHGVMGKDEREGNSPSFFNPEEAATVTSYLKLLLAPSSKKGKARLSPRSVGVISPYRKQVEKIRYCITKLDRELRGLDDIKDLKVGSVEEFQGQERSVILISTVRSSQSFVQLDLDFNLGFLKNPKRFNVAVTRAKALLIIVGNPLLLGHDPDWKVFLEFCKENGGYTGCPFPAKLDLQQGQNLLQGLSKLSPSTSGPHSHDYLPQEREGEGGLSLQVEPEWRNEL
Take B1: the binding result in experiment [1] and in experiment [2] was “binds” each time.

B2: UPF1 (protein, UniProt Q92900 1-1129)
chain: MSVEAYGPSSQTLTFLDTEEAELLGADTQGSEFEFTDFTLPSQTQTPPGGPGGPGGGGAGGPGGAGAGAAAGQLDAQVGPEGILQNGAVDDSVAKTSQLLAELNFEEDEEDTYYTKDLPIHACSYCGIHDPACVVYCNTSKKWFCNGRGNTSGSHIVNHLVRAKCKEVTLHKDGPLGETVLECYNCGCRNVFLLGFIPAKADSVVVLLCRQPCASQSSLKDINWDSSQWQPLIQDRCFLSWLVKIPSEQEQLRARQITAQQINKLEELWKENPSATLEDLEKPGVDEEPQHVLLRYEDAYQYQNIFGPLVKLEADYDKKLKESQTQDNITVRWDLGLNKKRIAYFTLPKTDSGNEDLVIIWLRDMRLMQGDEICLRYKGDLAPLWKGIGHVIKVPDNYGDEIAIELRSSVGAPVEVTHNFQVDFVWKSTSFDRMQSALKTFAVDETSVSGYIYHKLLGHEVEDVIIKCQLPKRFTAQGLPDLNHSQVYAVKTVLQRPLSLIQGPPGTGKTVTSATIVYHLARQGNGPVLVCAPSNIAVDQLTEKIHQTGLKVVRLCAKSREAIDSPVSFLALHNQIRNMDSMPELQKLQQLKDETGELSSADEKRYRALKRTAERELLMNADVICCTCVGAGDPRLAKMQFRSILIDESTQATEPECMVPVVLGAKQLILVGDHCQLGPVVMCKKAAKAGLSQSLFERLVVLGIRPIRLQVQYRMHPALSAFPSNIFYEGSLQNGVTAADRVKKGFDFQWPQPDKPMFFYVTQGQEEIASSGTSYLNRTEAANVEKITTKLLKAGAKPDQIGIITPYEGQRSYLVQYMQFSGSLHTKLYQEVEIASVDAFQGREKDFIILSCVRANEHQGIGFLNDPRRLNVALTRARYGVIIVGNPKALSKQPLWNHLLNYYKEQKVLVEGPLNNLRESLMQFSKPRKLVNTINPGARFMTTAMYDAREAIIPGSVYDRSSQGRPSSMYFQTHDQIGMISAGPSHVAAMNIPIPFNLVMPPMPPPGYFGQANGPAAGRGTPKGKTGRGGRQKNRFGLPGPSQTNLPNSQASQDVASQPFSQGALTQGYISMSQPSQMSQPGLSQPELSQDSYLGDEFKSQIDVALSQDSTYQGERAYQHGGVTGLSQY
For B2, the binding result in experiment [1] was “binds”.

B3: CLTA (protein, UniProt P09496 1-248)
chain: MAELDPFGAPAGAPGGPALGNGVAGAGEEDPAAAFLAQQESEIAGIENDEAFAILDGGAPGPQPHGEPPGGPDAVDGVMNGEYYQESNGPTDSYAAISQVDRLQSEPESIRKWREEQMERLEALDANSRKQEAEWKEKAIKELEEWYARQDEQLQKTKANNRVADEAFYKQPFADVIGYVTNINHPCYSLEQAAEEAFVNDIDESSPGTEWERVARLCDFNPKSSKQAKDVSRMRSVLISLKQAPLVH
B3: the binding entry in experiment [1] and in experiment [2] was “binds” throughout.
